The campaign covered roughly 390,000 compounds. About 910 (0.23%) were called active. This list was built around the results that the source calls inconclusive (neither active nor inactive); the mix of calls is not that of the screen. The call rests on the fitted dose curve; in most records, active means well fitted inhibition curve with a large enough effect; inconclusive means small, poorly fitted or top-dose-only effect; inactive means no such curve, though single readings can be large or run the other way. Where the call is inconclusive, the potency comes from a doubtful curve fit.
Target: Ubiquitin carboxyl-terminal hydrolase 1 (Homo sapiens) (UniProt O94782)
Test: Inhibitors of USP1/UAF1: Primary Screen; further: nearly all actives have a fitted effect of over 60% in size
Conditions: recombinant USP1/UAF1, Ub-Rhodamine cleavage fluorescence; activity change, negative = inhibition: at 57.1 µM (top of the series)
How it was run: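 1 nM enzyme complex + cpd, 15 min RT; start with Ub-Rho 150nM final; kinetic fluorescence ex 480/em 540, 6 reads q60 s. Buffer 50mM HEPES pH 7.8, 0.5mM EDTA, 0.1 mg/ml BSA, 1mM TCEP, 0.01% Tween-20.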
On the % scale 0 is the no-effect control and ±100 the full control effect; potency means the concentration at half of the fitted maximal effect.

The chains behind the UniProt entries cited, without tags or fusion partners. Where a name states a change or a piece, a line headed by the entry shows the natural chain unless it says otherwise.
UniProt O94782: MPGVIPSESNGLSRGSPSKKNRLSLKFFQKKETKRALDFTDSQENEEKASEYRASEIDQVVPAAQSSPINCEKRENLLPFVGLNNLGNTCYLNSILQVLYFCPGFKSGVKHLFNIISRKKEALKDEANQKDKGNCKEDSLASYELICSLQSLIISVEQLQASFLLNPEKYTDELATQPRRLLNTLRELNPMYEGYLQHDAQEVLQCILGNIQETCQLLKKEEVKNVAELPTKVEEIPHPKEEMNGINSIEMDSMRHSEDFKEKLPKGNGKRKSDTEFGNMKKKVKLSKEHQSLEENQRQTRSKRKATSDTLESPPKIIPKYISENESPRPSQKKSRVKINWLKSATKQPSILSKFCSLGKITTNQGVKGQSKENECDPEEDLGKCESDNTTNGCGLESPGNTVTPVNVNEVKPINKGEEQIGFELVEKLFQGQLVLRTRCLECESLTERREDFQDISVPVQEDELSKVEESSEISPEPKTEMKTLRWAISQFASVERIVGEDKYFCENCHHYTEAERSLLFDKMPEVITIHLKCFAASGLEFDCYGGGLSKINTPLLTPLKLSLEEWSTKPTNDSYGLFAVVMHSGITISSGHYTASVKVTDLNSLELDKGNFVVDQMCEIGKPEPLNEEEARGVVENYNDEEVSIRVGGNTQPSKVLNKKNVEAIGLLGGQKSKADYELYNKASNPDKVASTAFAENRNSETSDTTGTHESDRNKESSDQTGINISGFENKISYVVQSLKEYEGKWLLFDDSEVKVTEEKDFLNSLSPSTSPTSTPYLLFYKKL

Potency, inconclusive:
COc1ccc(NC(=O)Cc2csc(COc3cccc(C)c3)n2)cc1OC 10 µM [inhibitor, single point]
N#C/C(=C\c1ccc(O)c(O)c1)C(=O)c1ccc(O)c(O)c1 70.8 µM [inhibitor, partial curve, poor fit]
Cc1c(-c2ccccc2)c(=O)oc2c(CN3CCN(C)CC3)c(O)ccc12 56.2 µM [inhibitor, single point]
Cc1cc(OCC(=O)Nc2ccccc2N2CCCCC2)ccc1C(C)C 39.8 µM [inhibitor, partial curve]
CC(C)CCNC(=O)c1ccc(Cn2c(SCC(=O)NC(C)C)nc3ccccc3c2=O)cc1 4.47 µM [inhibitor, full curve]
O=C(NCCc1ccccc1)C1CCN(S(=O)(=O)c2cccs2)CC1 5.01 µM [inhibitor, partial curve]
CCN(CC)C(=O)C1CCCN(Cc2ccccc2)C1 (stereo not drawn) 35.5 µM [inhibitor, single point]
Fc1cccc(Cl)c1CNc1n[nH]c(-c2ccco2)n1 8.91 µM [inhibitor, single point]
CCCSc1ncc(Cl)c(C(=O)Nc2sc3c(c2C(=O)NCC)CCCC3)n1 0.891 µM [inhibitor, full curve, poor fit]
Cc1cc(NC(=O)CSCC(=O)Nc2nc3ccccc3[nH]2)no1 0.355 µM [inhibitor, full curve]
COc1ccc2ccc(OC)c(/C=N/NC(=O)c3cc4ccccc4o3)c2c1 35.5 µM [inhibitor, partial curve]
O=C(CN(C(=O)CNS(=O)(=O)c1ccc(F)cc1)C1CCCC1)NCc1ccco1 0.501 µM [inhibitor, full curve, poor fit]
CCCCN(C)CC(O)Cn1cc(/C=C/C(=O)c2ccc(OC)c(OC)c2)c2ccccc21 (stereo not drawn) 56.2 µM [inhibitor, partial curve, poor fit]
CCCCc1nn2c(=O)cc(COC(=O)c3cccc(NC(=O)c4cccc(C)c4)c3)nc2s1 0.708 µM [inhibitor, full curve]
S=C(NCCc1ccccc1)NC1CC2CCC(C1)N2Cc1ccccc1 (stereo not drawn) 31.6 µM [inhibitor, partial curve]
CN(CC(=O)Nc1ccc(N2CCOCC2)cc1)Cc1cc(=O)n2ccsc2n1 22.4 µM [inhibitor, partial curve, poor fit]
COc1ccc(/C=C/C(=O)c2cc(Br)ccc(=O)c2O)cc1 28.2 µM [inhibitor, partial curve]
COc1ccccc1C(=O)c1c(N)c(-c2nc(-c3ccccc3)cs2)c2ccccn12 3.55 µM [inhibitor, full curve, poor fit]
CCC(C)NC(=O)C1CCN(C(=O)N(C)C)CC1 (stereo not drawn) 39.8 µM [inhibitor, single point]
C=CCn1c(O)c(N=NC(=S)Nc2ccccc2C)c2cc(S(=O)(=O)N3CCOCC3)ccc21 50.1 µM [inhibitor, partial curve, poor fit]
CCOC(=O)Cc1csc(NC(=O)CSc2ncnc3c2cnn3-c2ccc(OC)cc2)n1 50.1 µM [inhibitor, partial curve]
COc1cc2cc(Oc3ccc4ccc(=O)oc4c3)c(=O)oc2cc1OC(=O)/C=C/c1ccccc1 39.8 µM [inhibitor, partial curve, poor fit]
CC(C)NC(=O)Nc1ccc2c(c1)C(=O)N([C@H](C)CO)C[C@H](C)[C@@H](CN(C)Cc1ccc(C(F)(F)F)cc1)OCCCC[C@H](C)O2 0.251 µM [inhibitor, full curve, poor fit]
CC(C)(C)N(Cc1ccccc1)C(=O)c1cc2ccccc2o1 15.8 µM [inhibitor, partial curve]
Cc1cc(C)c(NC(=O)Cn2c(=O)n(CCc3ccccc3)c(=O)c3ccccc32)c(C)c1 31.6 µM [inhibitor, partial curve]
CNc1ccc(Br)cc(C(=O)/C=C/c2ccc(OC)cc2)c1=O 31.6 µM [inhibitor, partial curve]
CC[C@]12c3[nH]c4ccccc4c3CCN1C(=O)C(CC(=O)NC/C=C(\C)CCC=C(C)C)C[C@@H]2C(=O)N1CCN(C(=O)C2CC2)CC1 (stereo partly drawn) 28.2 µM [inhibitor, partial curve]
O=C(CSc1nc2ncccc2[nH]1)Nc1ccc2c(c1)OCO2 5.01 µM [inhibitor, partial curve]
C[C@@H]1CN([C@H](C)CO)C(=O)c2cc(NC(=O)Nc3ccc(C(F)(F)F)cc3)ccc2O[C@H]1CN(C)S(=O)(=O)c1ccccc1 39.8 µM [inhibitor, partial curve, poor fit]
CCN(c1ccc(OC)cc1)S(=O)(=O)c1nnc(NC(=O)COc2ccc(F)cc2)s1 0.316 µM [inhibitor, full curve, poor fit]
COC(=O)C1C2C=CC3(CN(C(C)C)C(=O)C13)O2 (stereo not drawn) 35.5 µM [inhibitor, partial curve, poor fit]
Cc1c(C(=O)NCc2ccccc2)oc2ccc(S(=O)(=O)N3CCCC3)cc12 35.5 µM [inhibitor, partial curve]
COc1ccccc1C1OCC(C)([N+](=O)[O-])CO1 (stereo not drawn) 7.94 µM [inhibitor, single point]
O=C1c2cccc(NCCCNCCO)c2C(=O)c2cccc(NCCCNCCO)c21 31.6 µM [inhibitor, partial curve]
CN1C(=O)c2ccccc2Sc2ccc(NC(=O)Cc3c(F)cccc3Cl)cc21 79.4 µM [inhibitor, partial curve, poor fit]
CCOC(=O)/C=c1/s/c(=C/c2ccc3cc(OC)ccc3c2)c(=O)n1CC(=O)NCc1ccc2c(c1)OCO2 7.08 µM [inhibitor, full curve, poor fit]
Cc1ccccc1OCc1n(CC(=O)OC2CC(C)CCC2C(C)C)c2ccccc2[n+]1C (stereo not drawn) 70.8 µM [inhibitor, partial curve, poor fit]
c1ccc(CCC2CCCCN2Cc2cn[nH]c2-c2cc3ccccc3o2)nc1 (stereo not drawn) 0.891 µM [inhibitor, full curve, poor fit]
Cc1ccccc1NC(=O)CSc1nc2ccc(NC(=O)c3ccccc3)cc2s1 0.0891 µM [inhibitor, full curve, poor fit]
COc1cccc(Nc2cc(C)c3ccccc3n2)c1 2.82 µM [inhibitor, full curve]
CCOC(=O)[C@@H]1[C@H]2COc3ccccc3[C@@H]2N2C(=O)N(c3ccc(OC)cc3)C(=O)[C@]12C 6.31 µM [inhibitor, partial curve, poor fit]
Cc1ccc(-n2ncc(C(=O)N3CCN(Cc4ccccc4)CC3)c2C2CCN(C(=O)OC(C)(C)C)CC2)cc1 100 µM [inhibitor, partial curve]
N=c1c(C(=O)NC2CCCCC2)cc2c(=O)n3ccccc3nc2n1Cc1cccnc1 2 µM [inhibitor, partial curve]
COc1ccc(/C=C(\NC(=O)c2ccc(OC)cc2)C(=O)Nc2ccccc2C(=O)O)cc1 5.01 µM [inhibitor, full curve, poor fit]

Arranged by molecular weight (ascending): three of the compounds above
Potency, inconclusive:
COc1ccccc1C1OCC(C)([N+](=O)[O-])CO1 (stereo not drawn) 7.94 µM [inhibitor, single point]
Cc1cc(OCC(=O)Nc2ccccc2N2CCCCC2)ccc1C(C)C 39.8 µM [inhibitor, partial curve]
C[C@@H]1CN([C@H](C)CO)C(=O)c2cc(NC(=O)Nc3ccc(C(F)(F)F)cc3)ccc2O[C@H]1CN(C)S(=O)(=O)c1ccccc1 39.8 µM [inhibitor, partial curve, poor fit]

Next part.

Potency, active:
COc1cc(/C=C2/C(=O)NN(c3cccc(Cl)c3)C2=O)cc(Br)c1O 28.2 µM

Activity change, negative = inhibition, inconclusive:
CC(=O)c1cc2c(cc1NC(=O)CSc1nnc(C3CC3)n1C)OCO2 -11.1% [inhibitor]

Activity change, negative = inhibition, inactive:
C[C@H](CO)N1C[C@H](C)[C@@H](CN(C)CC2CCCCC2)Oc2c(NC(=O)Cc3ccccc3)cccc2C1=O -16.1%
N#CCSc1nc(Nc2ccc3c(c2)OCO3)c2ccccc2n1 -1.74%
O=C1C=CC(=O)N1c1ccc2c(c1)Cc1cc(F)ccc1-2 -10.4%
COc1ccc(CN2CCC(CO)(CCOc3ccccc3)CC2)c(OC)c1C 0.754%
Cc1cccc(C)c1NC(=O)COC(=O)c1cc(=O)c2ccccc2o1 -2.86%
O=C(NCc1ccc(F)cc1)C(c1ccccc1)c1ccccc1 -10.7%
CC(=O)Nc1ccc(C)cc1-c1nc2ccccc2n(CC(=O)c2ccc(Cl)cc2)c1=O -16.6%
Cc1cccc(-c2nc(SCC(=O)NCC3CCCO3)c3c(=O)n(C)c(=O)n(C)c3n2)c1 (stereo not drawn) -21.4%
Cc1ccccc1NC(=O)N1CCCC(c2nc(-c3ccc(F)cc3)no2)C1 (stereo not drawn) -8.06%
Cc1ccsc1C(=O)NNC(=O)Nc1ccc(Cl)c(Cl)c1 -7.39%
O=C1/C(=C/c2ccc(Br)cc2)Oc2cc(O)ccc21 -18%
O=C(CN1C(=O)S/C(=C\C=C\c2ccccc2)C1=O)Nc1ccc(O)cc1 -16.2%
Cc1ccc(NC(=O)Nc2ccc(Cl)cn2)cc1 -6.78%
Cc1ccc(OC(=O)c2ccc(N3CCOCC3)c([N+](=O)[O-])c2)cc1 -19.6%
COc1ccccc1CNC(=O)c1ccc2c(c1)N(Cc1cc(C)ccc1C)C(=O)c1ccccc1S2 -16.2%
CC(C)(C)OC(=O)N1CCC(c2c(C(=O)NCCN3CCCC3)cnn2-c2ccc(Cl)cc2)CC1 -18.1%
CCOc1ccc(C(=O)NCc2ccncc2)cc1 4.59%

Reference: PubChem BioAssay AID743255 (National Center for Advancing Translational Sciences (NCATS), 2014)
